{
  "source": "patent US20190008828A1",
  "about": "“METHODS FOR INHIBITING HUMAN IMMUNODEFICIENCY VIRUS (HIV) RELEASE FROM INFECTED CELLS” (priority 2015, published 2019)",
  "key": {"[1]": {"test_system": "HIV-1BaL", "test": "HIV-1BaL infection of activated CD8-depleted PBMCs", "format": "cell-based", "details": "100 μM concentration; intracellular p24"}, "[2]": {"test_system": "CD62L shedding", "test": "CD62L shedding on activated CD8-depleted PBMCs", "format": "cell-based, human"}, "[3]": {"test_system": "HIV-1 viral release", "test": "HIV-1 release assay, CD4+ T cells of HIV-1-infected individuals", "format": "cell-based", "details": "anti-CD3 stimulated CD4+ T cells from viremic and aviremic individuals; 48 hours", "experimental": "PBMCs were obtained by leukapheresis and ficoll-hypaque centrifugation. CD4+ T cells were isolated using a cell separation system (StemCell Technologies). Cells were cultured with medium alone or with plate-bound anti-CD3 and soluble anti-CD28 antibody in the absence (DMSO) or presence of BB-94 in duplicate for 48 hours. The copy number of virion-associated HIV RNA in the above cell culture supernatants was determined using the […]-1 Test, Version 2.0 (Roche Diagnostics). The limit of detection for this system is 20 copies/ml."}},
  "note": "At least one compound was matched to its structure with a doubt left.",
  "data": [
    {"compound": "CNC(=O)[C@H](Cc1ccccc1)NC(=O)[C@H](CC(C)C)[C@H](CSc1cccs1)C(=O)NO", "note": "[BB-94, Batimastat]", "values": [
      {"measurement": "HIV-1BaL infection", "setting": "[1]", "result": "significantly inhibited"},
      {"measurement": "CD62L shedding", "setting": "[2]; 100 μM concentration, supernatant CD62L by ELISA", "result": "significantly inhibited"},
      {"measurement": "CD62L shedding from infected (p24+) compared to p24− cells", "setting": "[2]; 100 μM, day 6 p.i., surface CD62L", "result": "significantly inhibited"},
      {"measurement": "activation-induced viral release, virion-associated HIV-1 RNA in supernatant", "setting": "[3]", "result": "profoundly inhibited"}
    ]}
  ]
}
